Results published in publication PMC8748879.

Chains of the proteins cited; added tags and fusions are not shown.
UniProt P04406: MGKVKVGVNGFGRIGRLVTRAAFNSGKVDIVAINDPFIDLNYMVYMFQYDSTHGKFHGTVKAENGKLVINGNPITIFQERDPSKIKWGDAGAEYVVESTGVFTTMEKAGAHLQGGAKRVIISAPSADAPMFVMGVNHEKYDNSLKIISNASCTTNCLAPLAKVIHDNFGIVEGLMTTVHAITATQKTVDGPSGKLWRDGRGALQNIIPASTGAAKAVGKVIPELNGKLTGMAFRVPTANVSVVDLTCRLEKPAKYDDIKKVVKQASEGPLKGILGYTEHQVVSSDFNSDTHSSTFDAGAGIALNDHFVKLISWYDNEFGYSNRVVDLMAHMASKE

Target: T1, catalytically inactive RNase H fused to Turbo biotin ligase (RHΔ-Turbo-F) (UniProt P0A7Y4)
T1 sequence: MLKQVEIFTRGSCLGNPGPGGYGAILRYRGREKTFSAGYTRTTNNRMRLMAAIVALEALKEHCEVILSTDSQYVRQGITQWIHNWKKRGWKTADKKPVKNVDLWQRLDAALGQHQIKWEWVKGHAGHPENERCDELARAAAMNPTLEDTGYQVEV
Test: proximity labelling; TurboID in stable HEK293 lines, biotin pulse 10 min, high salt nuclear extract, streptavidin beads with denaturing washes, eluates read by western blot

**Q.** With GAPDH (from UniProt P04406 1-335) as the substance, how does the binding read?
**A.** no binding

No constants are given. Whether binding was seen depends on the method and setting. In cells and extracts the contact can be indirect. These calls come from enrichment with a bait or labelling near it, and not all partners need be listed. No binding means not detected with the bait. Sequences can lack the tags named with a protein.
